Test [1] deals with T1, LINE-1 (L1) ORF1p (mouse (endogenous in Mael^-/- testis)) (UniProt P11260).
T1 sequence: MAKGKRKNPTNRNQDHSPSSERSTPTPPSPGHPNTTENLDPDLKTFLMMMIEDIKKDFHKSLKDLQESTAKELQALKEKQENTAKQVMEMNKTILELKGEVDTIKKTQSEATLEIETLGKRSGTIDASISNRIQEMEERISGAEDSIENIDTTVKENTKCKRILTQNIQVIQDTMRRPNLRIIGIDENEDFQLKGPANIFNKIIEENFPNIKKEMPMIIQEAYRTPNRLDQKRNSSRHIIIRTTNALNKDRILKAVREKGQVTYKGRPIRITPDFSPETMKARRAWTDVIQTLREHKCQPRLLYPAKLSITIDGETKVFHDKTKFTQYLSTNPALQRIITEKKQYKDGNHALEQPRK
Briefly: co-IP; anti-ORF1p immunoprecipitation from RNase-treated (RNase A, T1 and I) Mael^-/- testicular lysate, western blot for PRKRA; isotype IgG as negative control. In general terms: A western blot detects proteins with antibodies after separation by electrophoresis.

Test [2] deals with T1, LINE-1 (L1) ORF1p (mouse (endogenous in Mael^-/- testis)). Briefly: co-IP; anti-ORF1p immunoprecipitation from untreated Mael^-/- testicular lysate, western blot for PRKRA; isotype IgG as negative control.
Test [3] concerns the target T2, LINE-1 (L1) ORF1p, endogenous in F9 cells (mouse (endogenous in F9 cells)) (UniProt P11260).
T2 sequence: T1 sequence
Description: co-IP; anti-ORF1p immunoprecipitation from F9 cells transfected with pEGFP or pPRKRA, western blot; isotype IgG as negative control.

No constants are given. Whether binding was seen depends on the method and setting. Binding seen in cells or lysates may run through a third protein. Some binding calls cover weakened binding; strength is not graded here. For part of these data: Tags and fused reporters may be left off the sequences shown.

This passage reports binding results from PMC10289378.

B1: PRKRA (protein, UniProt Q9WTX2 1-313)
chain: MSHSRHRAEAPPLQREDSGTFSLGKMITAKPGKTPIQVLHEYGMKTKNIPVYECERSDVQVHVPTFTFRVTVGDITCTGEGTSKKLAKHRAAEAAINILKANASICFAVPDPLMPDPSKQPKNQLNPIGSLQELAIHHGWRLPEYTLSQEGGPAHKREYTTICRLESFMETGKGASKKQAKRNAAEKFLAKFSNISPENHISLTNVVGHSLGCTWHSLRNSPGEKINLLKRSLLSLPNTDYIQLLSEIASEQGFNITYLDIEELSANGQYQCLAELSTSPITVCHGSGISCGNAQSDAAHNALQYLKIIAERK
On to B1, for which the binding result in test [1] and in test [2] was “binds” each time.

B2: 3XFLAG N-terminally tagged mouse PRKRA (protein, UniProt Q9WTX2 1-313)
chain: B1 chain
In the case of B2, in test [3], the binding result is “binds”.
